Protein sequences, listed by entry. Tags and fused reporters are not part of them. Lines headed by an entry give the natural chain unless they say otherwise; changes in a name come on top.
UniProt P17676: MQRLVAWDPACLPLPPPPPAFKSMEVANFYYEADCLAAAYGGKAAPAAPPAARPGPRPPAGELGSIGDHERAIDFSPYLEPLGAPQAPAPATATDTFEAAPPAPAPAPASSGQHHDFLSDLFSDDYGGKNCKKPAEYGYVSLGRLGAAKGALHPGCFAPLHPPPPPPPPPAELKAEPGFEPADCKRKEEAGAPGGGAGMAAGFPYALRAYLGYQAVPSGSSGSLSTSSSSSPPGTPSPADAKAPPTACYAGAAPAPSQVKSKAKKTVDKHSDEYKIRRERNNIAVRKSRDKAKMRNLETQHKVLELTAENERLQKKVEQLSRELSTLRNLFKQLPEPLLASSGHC
UniProt P49715, whole entry: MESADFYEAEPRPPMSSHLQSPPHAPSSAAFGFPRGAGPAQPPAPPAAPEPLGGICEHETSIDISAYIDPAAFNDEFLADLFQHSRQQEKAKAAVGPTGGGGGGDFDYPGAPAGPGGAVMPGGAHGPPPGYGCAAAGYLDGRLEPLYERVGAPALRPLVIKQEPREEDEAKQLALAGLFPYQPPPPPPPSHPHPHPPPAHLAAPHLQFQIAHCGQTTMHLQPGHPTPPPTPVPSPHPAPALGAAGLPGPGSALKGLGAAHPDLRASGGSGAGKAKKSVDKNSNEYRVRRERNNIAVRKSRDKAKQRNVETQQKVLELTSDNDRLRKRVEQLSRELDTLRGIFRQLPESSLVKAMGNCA

According to PMC1817651:

Key:
[1] = molecular target: C/EBP-beta (endogenous) (UniProt P17676); experiment: competition EMSA; settings: 250-fold excess vs N8, JEG-3 extract; EMSA: 35 fmol probe, 2 ug Ets-2-GST or 10 ug JEG-3 extract; protein in an extract; label: none (competitor)
[2] = molecular target: C/EBP-beta (endogenous) (UniProt P17676); experiment: competition pull-down; settings: 250-fold excess vs N10, JEG-3 extract; EMSA: 35 fmol probe, 2 ug Ets-2-GST or 10 ug JEG-3 extract; protein in an extract; label: none (competitor)
[3] = molecular target: C/EBP-beta (endogenous) (UniProt P17676); experiment: pull-down, immunoblot; settings: JEG-3 extract, pull-down: extract in 25 mM Tris-HCl pH 7.5, 150 mM NaCl, 0.5% Triton X-100, 0.5 mM DTT, 4 C overnight, protein in an extract, label: 3' biotin on sense strand
[4] = test system: Ets-2 (endogenous) + C/EBP-beta (endogenous); experiment: pull-down, immunoblot; settings: Ets-2 via C/EBP-beta, competed by unlabeled wild type; pull-down: extract in 25 mM Tris-HCl pH 7.5, 150 mM NaCl, 0.5% Triton X-100, 0.5 mM DTT, 4 C overnight; protein in an extract; label: 3' biotin on sense strand
[5] = molecular target: C/EBP-alpha (endogenous) (UniProt P49715); experiment: EMSA supershift; settings: JEG-3 extract, minor effect; EMSA: 35 fmol probe, 2 ug Ets-2-GST or 10 ug JEG-3 extract; protein in an extract; label: 32P
[6] = molecular target: C/EBP-beta (endogenous) (UniProt P17676); experiment: EMSA supershift; settings: JEG-3 extract, self-competed by 250-fold excess; EMSA: 35 fmol probe, 2 ug Ets-2-GST or 10 ug JEG-3 extract; protein in an extract; label: 32P
[7] = test system: Fos B (endogenous); experiment: pull-down, immunoblot; settings: JEG-3 extract, pan-Fos; pull-down: extract in 25 mM Tris-HCl pH 7.5, 150 mM NaCl, 0.5% Triton X-100, 0.5 mM DTT, 4 C overnight; protein in an extract; label: 3' biotin on sense strand
[8] = test system: Fra-1 (endogenous); experiment: pull-down, immunoblot; settings: JEG-3 extract, pan-Fos; pull-down: extract in 25 mM Tris-HCl pH 7.5, 150 mM NaCl, 0.5% Triton X-100, 0.5 mM DTT, 4 C overnight; protein in an extract; label: 3' biotin on sense strand
[9] = test system: Fra-2 (endogenous); experiment: pull-down, immunoblot; settings: JEG-3 extract, pan-Fos; pull-down: extract in 25 mM Tris-HCl pH 7.5, 150 mM NaCl, 0.5% Triton X-100, 0.5 mM DTT, 4 C overnight; protein in an extract; label: 3' biotin on sense strand
[10] = test system: c-Fos (endogenous); experiment: pull-down, immunoblot; settings: JEG-3 extract, pan-Fos; pull-down: extract in 25 mM Tris-HCl pH 7.5, 150 mM NaCl, 0.5% Triton X-100, 0.5 mM DTT, 4 C overnight; protein in an extract; label: 3' biotin on sense strand

Q: Which results are given for “AGGTAGGGAGGTTATCCCCCAAACAGGACT (double strand) [mut C/EBP]”?
A: binding result [1]: no binding; binding result [2]: no binding

Q: Does “AGGTAGGGAGGTTATGCAATAAACAGGACT (double strand) [biotinylated C/EBP oligo]” bind ([3]; competed by unlabeled wild type)?
A: Result: binds

Q: Does “AGGTAGGGAGGTTATGCAATAAACAGGACT (double strand) [biotinylated C/EBP oligo]” bind [4]?
A: Result: binds

Q: Does “AGGTAGGGAGGTTATGCAATAAACAGGACT (double strand) [wt C/EBP (EMSA)]” bind [5]?
A: Result: binds more weakly

Q: Does “AGGTAGGGAGGTTATGCAATAAACAGGACT (double strand) [wt C/EBP (EMSA)]” bind [6]?
A: Result: binds

Q: Does “TAAACAGGACTGACTCAACTCCTCCCC (double strand) [biotinylated AP-1 oligo]” bind ([3]; possibly indirect)?
A: Result: binds

Q: Does “TAAACAGGACTGACTCAACTCCTCCCC (double strand) [biotinylated AP-1 oligo]” bind [7]?
A: Result: no binding

Q: Does “TAAACAGGACTGACTCAACTCCTCCCC (double strand) [biotinylated AP-1 oligo]” bind [8]?
A: Result: no binding

Q: Does “TAAACAGGACTGACTCAACTCCTCCCC (double strand) [biotinylated AP-1 oligo]” bind [9]?
A: Result: no binding

Q: Does “TAAACAGGACTGACTCAACTCCTCCCC (double strand) [biotinylated AP-1 oligo]” bind [10]?
A: Result: no binding

For at least one entry, the source does not settle the construct or the ends of the probe. At least one result comes from cells or an extract, where the contact may be indirect. For some assays here: No signal at the amounts used counts as a negative. For some assays here: A weaker result is weaker than the reference pair of the same experiment.
